Results are given in words; binding and its absence hold for the method and conditions named. Binding seen in cells or lysates may run through a third protein. These calls come from enrichment with a bait or labelling near it, and not all partners need be listed.

Protein sequences, listed by entry. Tags and fused reporters are not part of them. Residues count along the entry.
UniProt P20333, residues 288-461: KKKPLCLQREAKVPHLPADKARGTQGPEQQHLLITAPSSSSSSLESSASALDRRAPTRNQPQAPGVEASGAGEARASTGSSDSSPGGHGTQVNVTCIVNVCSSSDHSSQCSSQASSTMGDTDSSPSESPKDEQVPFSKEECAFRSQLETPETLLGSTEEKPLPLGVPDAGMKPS

This test concerns the target GST-TNFR2ICD (UniProt P20333). Nature of the test: GST-TNFR2ICD pull-down from PGRN-treated human C28I2 chondrocytes, mass spectrometry.

B1: TRAF2 (protein, human, UniProt Q12933 2-501, looked up)
chain: AAASVTPPGSLELLQPGFSKTLLGTKLEAKYLCSACRNVLRRPFQAQCGHRYCSFCLASILSSGPQNCAACVHEGIYEEGISILESSSAFPDNAARREVESLPAVCPSDGCTWKGTLKEYESCHEGRCPLMLTECPACKGLVRLGEKERHLEHECPERSLSCRHCRAPCCGADVKAHHEVCPKFPLTCDGCGKKKIPREKFQDHVKTCGKCRVPCRFHAIGCLETVEGEKQQEHEVQWLREHLAMLLSSVLEAKPLLGDQSHAGSELLQRCESLEKKTATFENIVCVLNREVERVAMTAEACSRQHRLDQDKIEALSSKVQQLERSIGLKDLAMADLEQKVLEMEASTYDGVFIWKISDFARKRQEAVAGRIPAIFSPAFYTSRYGYKMCLRIYLNGDGTGRGTHLSLFFVVMKGPNDALLRWPFNQKVTLMLLDQNNREHVIDAFRPDVTSSSFQRPVNDMNIASGCPLFCPVSKMEAKNSYVRDDAIFIKAIVDLTGL
In the case of B1, the binding entry was “binds”.

B2: TRAF1 (protein, human, UniProt Q13077 1-416, looked up)
chain: MASSSGSSPRPAPDENEFPFGCPPTVCQDPKEPRALCCAGCLSENPRNGEDQICPKCRGEDLQSISPGSRLRTQEKAHPEVAEAGIGCPFAGVGCSFKGSPQSVQEHEVTSQTSHLNLLLGFMKQWKARLGCGLESGPMALEQNLSDLQLQAAVEVAGDLEVDCYRAPCSESQEELALQHFMKEKLLAELEGKLRVFENIVAVLNKEVEASHLALATSIHQSQLDRERILSLEQRVVELQQTLAQKDQALGKLEQSLRLMEEASFDGTFLWKITNVTRRCHESACGRTVSLFSPAFYTAKYGYKLCLRLYLNGDGTGKRTHLSLFIVIMRGEYDALLPWPFRNKVTFMLLDQNNREHAIDAFRPDLSSASFQRPQSETNVASGCPLFFPLSKLQSPKHAYVKDDTMFLKCIVETST
In the case of B2, the binding result is “binds”.

The values are drawn from patent US20190388508A1.
